{"source": "patent US9604989B2", "about": "“Imidazopyridazines as Akt kinase inhibitors” (Bayer Intellectual Property GmbH, priority 2011, dated 2017)", "key": {"phospho-AKT at S473": {"system": "phospho-AKT at S473", "assay": "Cellular p-AKT1/2/3-S473 assay in KPL-4 cells", "assay_type": "cell-based", "conditions": "Homo sapiens, KPL4; KPL-4 breast tumour cell line, compound treatment 2 hours; read-out: pAKT-S473 median IC50"}, "p-4E-BP1 at T70": {"system": "p-4E-BP1 at T70", "assay": "Cellular p-4E-BP1-T70 assay in KPL-4 cells", "assay_type": "cell-based", "conditions": "Homo sapiens, KPL4; KPL-4 breast tumour cell line, compound treatment 2 hours; read-out: P4EBP1-T70 median IC50"}}, "data": [{"compound": "NC(=O)c1ccc2nc(-c3ccc(C4(N)CCC4)cc3)c(-c3ccccc3)n2n1", "note": "[Example 5, 2-[4-(1-Aminocyclobutyl)phenyl]-3-phenylimidazo[1,2-b]pyridazine-6-carboxamide]", "values": [{"measurement": "IC50", "setting": "phospho-AKT at S473", "result": 0.0009, "unit": "µM"}, {"measurement": "IC50", "setting": "p-4E-BP1 at T70", "result": 0.035, "unit": "µM"}]}]}
